Experimental findings from patent US20070081998A1 are described below.

Amino acid sequences for entries named in this document (tags omitted). Residues count along the entry.
UniProt P05067, residues 672-713: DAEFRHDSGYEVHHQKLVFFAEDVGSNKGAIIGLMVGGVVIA

For the experiment, the target named is Aβ in dense core and diffuse plaques in human Alzheimer's Disease brain tissue (human) (UniProt P05067). The experiment can be described thus: immunohistochemistry on human Alzheimer's Disease brain tissue, biotinylated antibody.

No constants are given. Whether binding was seen depends on the method and setting. Some binding calls cover weakened binding; strength is not graded here.

B1: Hu20C2A3 (veneered version of clone A3, IgG2m4 isotype) (antibody, V domains shown)
VH: QVTLKESGPGLLKPTQTLTLTCTLSGFSLSTSGMGVGWFRQPPGKGLEWLAHIWWDDDKSYNPSLKSRLTISKDTSKNQVVLTITNVDPVDTATYYCARRQLGTRGTDAMDYWGQGTTVTVSS
VL: DVVMTQTPLSLPVTPGQPASISCRSSQSILHSNGNTYLEWYLQKPGQSPQLLIYKVSNRFSGVPDRFSGSGSGTDFTLKISRVEAEDVGVYYCLQTTRVPLTFGQGTKLEIKR
B1: the binding result is reported as “binds”.
